Results deposited as PubChem BioAssay AID1259308 (NCATS, 2017).
Purpose: 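Knock-downs that increase output of a recombinant reporter protein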 (primary screen). System: human HEK293 embryonic kidney cells stably expressing firefly luciferase (HEK-CMV-Luc2-Hygro). Reagent: single siRNA against human genes, 0.8 pmol siRNA per well. Time to read-out: 72 h. Detection: 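Reporter luminescence and viable-cell signal on separate replicate plates, given as percent of non-targeting control and median/MAD z-scores, plus per-cell luciferase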. Direction: total luciferase, z-score and total luciferase, % of control: higher = more reporter protein produced; luciferase per cell, z-score: higher = more reporter output per viable cell. Hit rule: 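An siRNA counts as active if its total luciferase robust z-score exceeds 3; genes with two or more such siRNAs out of three were retested with fresh siRNAs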. Calls: active = raised luciferase; inactive = no rise.
The deposit covers about 59,000 reagents; this is a random part of them. About 1,510 of all reagents (2.6%) count as active. 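Calls use total luciferase alone and ignore viability, so some active siRNAs may act by altering cell number.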 Reagents against one gene are numbered here. Further read-outs or replicates are left out here. No sequences are given here.

| gene | reagent | total luciferase, z-score | total luciferase, % of control | luciferase per cell, z-score | Call |
| --- | --- | --- | --- | --- | --- |
| ZNF235 (zinc finger protein 235) | 1 | -0.233 | 77.3 | 0.558 | inactive |
| ZNF235 (zinc finger protein 235) | 2 | -0.539 | 71.2 | -0.0694 | inactive |
| ZNF235 (zinc finger protein 235) | 3 | -0.0515 | 80.9 | -0.635 | inactive |
| EEF1AKMT2 (EEF1A lysine methyltransferase 2) | 1 | 0.765 | 97.1 | 1.43 | inactive |
| EEF1AKMT2 (EEF1A lysine methyltransferase 2) | 2 | 1.38 | 109 | 0.986 | inactive |
| EEF1AKMT2 (EEF1A lysine methyltransferase 2) | 3 | 0.294 | 87.7 | -0.558 | inactive |
| INO80 (INO80 complex ATPase subunit) | 1 | 1.68 | 115 | 1.54 | inactive |
| INO80 (INO80 complex ATPase subunit) | 2 | 0.927 | 100 | 0.787 | inactive |
| INO80 (INO80 complex ATPase subunit) | 3 | 1.44 | 111 | 1.53 | inactive |
| RPLP0 (ribosomal protein lateral stalk subunit P0) | 1 | -1.68 | 48.6 | -0.0859 | inactive |
| RPLP0 (ribosomal protein lateral stalk subunit P0) | 2 | -2.45 | 33.1 | -0.557 | inactive |
| RPLP0 (ribosomal protein lateral stalk subunit P0) | 3 | -1.79 | 46.3 | 0.491 | inactive |
| HMGB3P22 (high mobility group box 3 pseudogene 22) | 1 | 0.519 | 92.2 | 0.545 | inactive |
| HMGB3P22 (high mobility group box 3 pseudogene 22) | 2 | -0.606 | 69.8 | 0.0772 | inactive |
| HMGB3P22 (high mobility group box 3 pseudogene 22) | 3 | -0.0479 | 80.9 | -0.579 | inactive |
| HILPDA (hypoxia inducible lipid droplet associated) | 1 | 0.557 | 93 | 0.259 | inactive |
| HILPDA (hypoxia inducible lipid droplet associated) | 2 | 1.64 | 114 | 1.83 | inactive |
| HILPDA (hypoxia inducible lipid droplet associated) | 3 | -1.71 | 47.9 | -1.55 | inactive |
| ASNS (asparagine synthetase (glutamine-hydrolyzing)) | 1 | -2.93 | 23.5 | -3.24 | inactive |
| ASNS (asparagine synthetase (glutamine-hydrolyzing)) | 2 | -3.37 | 14.8 | -4.81 | inactive |
| ASNS (asparagine synthetase (glutamine-hydrolyzing)) | 3 | -2.98 | 22.5 | -2.88 | inactive |

Part of the list above, reformatted.
ASNS (asparagine synthetase (glutamine-hydrolyzing)) #1
- total luciferase, z-score: -2.93
- total luciferase, % of control: 23.5
- luciferase per cell, z-score: -3.24
- Call: inactive

ASNS (asparagine synthetase (glutamine-hydrolyzing)) #2
- total luciferase, z-score: -3.37
- total luciferase, % of control: 14.8
- luciferase per cell, z-score: -4.81
- Call: inactive

Next records:
| gene | reagent | total luciferase, z-score | total luciferase, % of control | luciferase per cell, z-score | Call |
| --- | --- | --- | --- | --- | --- |
| CYB5R2 (cytochrome b5 reductase 2) | 1 | -0.0644 | 80.6 | 0.354 | inactive |
| CYB5R2 (cytochrome b5 reductase 2) | 2 | 0.0868 | 83.6 | 0.45 | inactive |
| CYB5R2 (cytochrome b5 reductase 2) | 3 | 0.498 | 91.8 | 0.646 | inactive |
| CASP8 (caspase 8) | 1 | -0.404 | 73.9 | -0.577 | inactive |
| CASP8 (caspase 8) | 2 | 0.627 | 94.3 | 0.0653 | inactive |
| CASP8 (caspase 8) | 3 | 3.37 | 149 | 1.78 | active |
| EBF3 (EBF transcription factor 3) | 1 | 0.913 | 100 | 1.02 | inactive |
| EBF3 (EBF transcription factor 3) | 2 | -0.783 | 66.3 | -0.0562 | inactive |
| EBF3 (EBF transcription factor 3) | 3 | -0.412 | 73.7 | -0.324 | inactive |
| NDST3 (N-deacetylase and N-sulfotransferase 3) | 1 | -0.224 | 77.4 | -0.235 | inactive |
| NDST3 (N-deacetylase and N-sulfotransferase 3) | 2 | -1.33 | 55.5 | -1.63 | inactive |
| NDST3 (N-deacetylase and N-sulfotransferase 3) | 3 | 0.145 | 84.8 | -0.22 | inactive |
| CENPH (centromere protein H) | 1 | 2.87 | 139 | 2.04 | inactive |
| CENPH (centromere protein H) | 2 | 0.151 | 84.9 | -0.386 | inactive |
| CENPH (centromere protein H) | 3 | -0.187 | 78.2 | 0.1 | inactive |
| PCGF3 (polycomb group ring finger 3) | 1 | -0.821 | 65.6 | -0.572 | inactive |
| PCGF3 (polycomb group ring finger 3) | 2 | 0.339 | 88.6 | 0.859 | inactive |
| PCGF3 (polycomb group ring finger 3) | 3 | 0.385 | 89.5 | 0.106 | inactive |
| NOP9 (NOP9 nucleolar protein) | 1 | -0.353 | 74.9 | -0.361 | inactive |
| NOP9 (NOP9 nucleolar protein) | 2 | 0.112 | 84.1 | 0.691 | inactive |
| NOP9 (NOP9 nucleolar protein) | 3 | -0.299 | 75.9 | -0.684 | inactive |
| OR56A1 (olfactory receptor family 56 subfamily A member 1) | 1 | 0.663 | 95.1 | 1.76 | inactive |
| OR56A1 (olfactory receptor family 56 subfamily A member 1) | 2 | -0.187 | 78.2 | 0.0431 | inactive |
| OR56A1 (olfactory receptor family 56 subfamily A member 1) | 3 | -0.177 | 78.4 | -0.441 | inactive |
| TBX1 (T-box transcription factor 1) | 1 | 3.32 | 148 | 2.25 | active |
| TBX1 (T-box transcription factor 1) | 2 | 3.25 | 147 | 2.94 | active |
| TBX1 (T-box transcription factor 1) | 3 | -0.29 | 76.1 | -0.412 | inactive |
| KPNA4 (karyopherin subunit alpha 4) | 1 | -0.789 | 66.2 | -0.385 | inactive |
| KPNA4 (karyopherin subunit alpha 4) | 2 | 0.48 | 91.4 | -0.447 | inactive |
| KPNA4 (karyopherin subunit alpha 4) | 3 | 1.15 | 105 | 0.787 | inactive |
| HDGFL2 (HDGF like 2) | 1 | -0.486 | 72.2 | -0.116 | inactive |
| HDGFL2 (HDGF like 2) | 2 | -0.936 | 63.3 | -0.908 | inactive |
| HDGFL2 (HDGF like 2) | 3 | -0.728 | 67.4 | -0.37 | inactive |
| FBXW2 (F-box and WD repeat domain containing 2) | 1 | 0.471 | 91.3 | 0.0177 | inactive |
| FBXW2 (F-box and WD repeat domain containing 2) | 2 | -1.19 | 58.2 | -1.62 | inactive |
| FBXW2 (F-box and WD repeat domain containing 2) | 3 | -0.22 | 77.5 | -0.584 | inactive |
